Results are given in words; binding and its absence hold for the method and conditions named. In cells and extracts the contact can be indirect. These calls come from enrichment with a bait or labelling near it, and not all partners need be listed. A no says only that the protein was not detected with the bait. For part of these data: Tags and fused reporters may be left off the sequences shown.
Key:
[1] = target: T1, FICD wild type, his tag labelled (human) (UniProt Q9BVA6); assay: affinity purification with mass spectrometry; pull-down of his tag labelled FICD (wt, and in parallel E234G) in the presence of the chemical cross-linker DSSO, called in situ; LC-MS/MS, volcano plot FDR 0.01, s0 1.5, n = 3
T1 sequence: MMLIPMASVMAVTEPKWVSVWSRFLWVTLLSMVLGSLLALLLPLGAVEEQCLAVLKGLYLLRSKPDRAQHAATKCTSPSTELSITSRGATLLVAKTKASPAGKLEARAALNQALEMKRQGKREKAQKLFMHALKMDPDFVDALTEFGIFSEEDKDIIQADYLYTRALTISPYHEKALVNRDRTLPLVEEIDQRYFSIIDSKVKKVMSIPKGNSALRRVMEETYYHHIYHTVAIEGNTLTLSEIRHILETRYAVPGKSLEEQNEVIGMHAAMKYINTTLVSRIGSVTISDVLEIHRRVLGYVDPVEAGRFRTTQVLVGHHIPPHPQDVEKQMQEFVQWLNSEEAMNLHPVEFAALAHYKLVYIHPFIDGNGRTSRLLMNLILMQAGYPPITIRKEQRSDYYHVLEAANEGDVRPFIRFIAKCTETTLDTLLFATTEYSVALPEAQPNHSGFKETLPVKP

The chains behind the UniProt entries cited, without tags or fusion partners. Residues count along the entry.
UniProt Q9Y570: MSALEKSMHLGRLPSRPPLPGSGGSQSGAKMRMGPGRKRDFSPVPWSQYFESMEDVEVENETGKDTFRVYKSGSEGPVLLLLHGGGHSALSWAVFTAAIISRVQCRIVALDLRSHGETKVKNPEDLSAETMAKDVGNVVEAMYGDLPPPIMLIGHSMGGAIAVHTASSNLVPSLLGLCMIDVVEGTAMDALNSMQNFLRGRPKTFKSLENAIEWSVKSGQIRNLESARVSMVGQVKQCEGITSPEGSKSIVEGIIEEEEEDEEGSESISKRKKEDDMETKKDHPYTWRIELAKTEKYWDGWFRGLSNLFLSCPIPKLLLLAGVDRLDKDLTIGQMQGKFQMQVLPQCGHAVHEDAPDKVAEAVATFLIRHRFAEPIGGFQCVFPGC
UniProt P11021, residues 19-654: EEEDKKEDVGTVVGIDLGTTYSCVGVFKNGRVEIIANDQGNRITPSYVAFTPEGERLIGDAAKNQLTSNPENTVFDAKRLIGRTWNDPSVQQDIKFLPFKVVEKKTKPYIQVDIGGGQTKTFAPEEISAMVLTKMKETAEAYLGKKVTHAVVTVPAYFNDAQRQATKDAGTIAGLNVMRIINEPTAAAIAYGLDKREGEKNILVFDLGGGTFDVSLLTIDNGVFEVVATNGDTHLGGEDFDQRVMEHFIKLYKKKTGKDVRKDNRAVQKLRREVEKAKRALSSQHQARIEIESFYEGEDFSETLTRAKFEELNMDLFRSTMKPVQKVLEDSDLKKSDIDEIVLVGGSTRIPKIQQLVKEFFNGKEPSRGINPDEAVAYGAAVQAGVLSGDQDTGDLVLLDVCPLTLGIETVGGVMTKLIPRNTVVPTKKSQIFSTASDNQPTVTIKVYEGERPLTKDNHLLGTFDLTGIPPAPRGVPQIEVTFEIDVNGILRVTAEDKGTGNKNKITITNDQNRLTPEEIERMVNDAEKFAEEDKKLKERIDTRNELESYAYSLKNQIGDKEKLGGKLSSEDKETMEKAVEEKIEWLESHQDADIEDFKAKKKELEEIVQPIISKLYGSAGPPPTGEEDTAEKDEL

[2] = target: T2, FICD E234G mutant (human) (UniProt Q9BVA6); assay: as above
T2 sequence: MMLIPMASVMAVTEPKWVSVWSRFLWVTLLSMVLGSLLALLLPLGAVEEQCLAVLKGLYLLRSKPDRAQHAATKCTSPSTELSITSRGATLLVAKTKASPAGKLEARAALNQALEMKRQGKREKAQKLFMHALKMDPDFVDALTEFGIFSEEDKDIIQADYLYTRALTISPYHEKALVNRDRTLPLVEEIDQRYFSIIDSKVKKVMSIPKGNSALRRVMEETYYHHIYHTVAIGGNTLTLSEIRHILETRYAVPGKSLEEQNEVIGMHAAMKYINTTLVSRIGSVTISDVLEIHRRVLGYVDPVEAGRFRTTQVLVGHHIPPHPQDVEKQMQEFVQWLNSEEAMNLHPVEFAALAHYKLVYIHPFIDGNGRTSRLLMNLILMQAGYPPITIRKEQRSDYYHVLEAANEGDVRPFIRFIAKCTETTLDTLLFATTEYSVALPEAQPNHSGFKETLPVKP

With PPME1 (from UniProt Q9Y570 1-386) the binding [1] was “no binding” and the binding [2] was “no binding”.

For HSPA5 (from UniProt P11021 19-654), the binding [1] was “binds” and the binding [2] was “binds”.

B1: ATP-dependent 6-phosphofructokinase (PFKP) (protein, UniProt Q01813 1-784)
chain: MDADDSRAPKGSLRKFLEHLSGAGKAIGVLTSGGDAQGMNAAVRAVVRMGIYVGAKVYFIYEGYQGMVDGGSNIAEADWESVSSILQVGGTIIGSARCQAFRTREGRLKAACNLLQRGITNLCVIGGDGSLTGANLFRKEWSGLLEELARNGQIDKEAVQKYAYLNVVGMVGSIDNDFCGTDMTIGTDSALHRIIEVVDAIMTTAQSHQRTFVLEVMGRHCGYLALVSALACGADWVFLPESPPEEGWEEQMCVKLSENRARKKRLNIIIVAEGAIDTQNKPITSEKIKELVVTQLGYDTRVTILGHVQRGGTPSAFDRILASRMGVEAVIALLEATPDTPACVVSLNGNHAVRLPLMECVQMTQDVQKAMDERRFQDAVRLRGRSFAGNLNTYKRLAIKLPDDQIPKTNCNVAVINVGAPAAGMNAAVRSAVRVGIADGHRMLAIYDGFDGFAKGQIKEIGWTDVGGWTGQGGSILGTKRVLPGKYLEEIATQMRTHSINALLIIGGFEAYLGLLELSAAREKHEEFCVPMVMVPATVSNNVPGSDFSIGADTALNTITDTCDRIKQSASGTKRRVFIIETMGGYCGYLANMGGLAAGADAAYIFEEPFDIRDLQSNVEHLTEKMKTTIQRGLVLRNESCSENYTTDFIYQLYSEEGKGVFDCRKNVLGHMQQGGAPSPFDRNFGTKISARAMEWITAKLKEARGRGKKFTTDDSICVLGISKRNVIFQPVAELKKQTDFEHRIPKEQWWLKLRPLMKILAKYKASYDVSDSGQLEHVQPWSV
B1 was tested, and the binding [1] was “no binding” and the binding [2] was “no binding”.
